Measurements published in publication PMC10533640.
Results are given in words; binding and its absence hold for the method and conditions named. Binding seen in cells or lysates may run through a third protein. Some results given as binding are weak or reduced against the parent protein; the word gives no strength.

Amino acid sequences for entries named in this document (tags omitted).
UniProt Q15836: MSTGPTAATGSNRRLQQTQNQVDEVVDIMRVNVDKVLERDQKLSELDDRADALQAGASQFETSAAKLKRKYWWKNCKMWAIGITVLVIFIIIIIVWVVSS

Tests used:
[1] = target: galectin-9 (endogenous, THP-1 cells) (human (endogenous in THP-1)) (UniProt O00182); experiment: co-IP; THP-1 cells transfected with empty vector or 3xFLAG_Vamp-3, lysate (1% Brij97, 150 mM NaCl, 25 mM Tris-HCl pH 7.5, 2 mM EDTA), IP with anti-galectin-9 or goat isotype control, protein G sepharose, 4 °C, blot for FLAG and galectin-9
[2] = target: galectin-9 (endogenous, monocyte-derived dendritic cells) (human (endogenous in moDCs)) (UniProt O00182); experiment: co-IP; moDC lysate (1% Brij97, 150 mM NaCl, 10 mM Tris-HCl pH 7.5, 2 mM MgCl2, 2 mM CaCl2), IP with anti-galectin-9 or isotype control, 4 °C, blot for Vamp-3 and galectin-9; resting and LPS-activated cells

binding [1]	binding [2]	Substance
binds	–	3 × FLAG_Vamp-3 (from UniProt Q15836 1-100)
–	binds	vesicle-associated membrane protein 3 (Vamp-3) (endogenous, monocyte-derived dendritic cells) (from UniProt Q15836 1-100)
